Values quoted from earlier work, collected in patent publication US8809538B2, “Piperidine-containing compounds and use thereof” (Array BioPharma Inc., priority 2009, dated 2014).
For at least one compound, name, drawing or mass did not settle the structure.

Test system: KKAy/Ta Jcl mice
Details: oral administration one time per day, from 50 mg/kg body weight; cited from earlier work

**Q.** For `CCc1ccc(CCOc2ccc(CC3SC(=O)NC3=O)cc2)nc1` (stereo not drawn) [pioglitazone], which blood glucose level is on record?
**A.** Its blood glucose level is “decline”.

**Q.** And the body weight?
**A.** The body weight was “body weight gain”.

**Q.** What about the insulin level of the same molecule?
**A.** The insulin level was “decline”.
